From publication PMC4522657, “Identification of a DYRK1A Inhibitor that Induces Degradation of the Target Kinase using Co-chaperone CDC37 fused with Luciferase nanoKAZ” (Scientific Reports, 2015)

Tested on: CDC37-nanoKAZ
Assay: Luminescence activity of CDC37-nanoKAZ in total cell lysates
Format: cell-based
Details: counter-test, same concentrations as interaction assay
Protocol: The luminescence activity of the cell lysates was determined using a Centro LB 960 Microplate Luminometer (Berthold Technologies, Bad Wildbad, Germany). A reaction mixture containing bis-coelenterazine (final concentration of 0.1–1 μg/100 μL) in PBS containing 0.02% Tween20 and 20 mM EDTA was injected. The luminescence intensity was recorded at 0.1 s intervals for 10 s or 10 min. The maximum luminescence intensity (Imax), represented in relative luminescence units (rlu), was used in the study.
Targeting the DYRK1A/CDC37 complex
(a-d) Luminescence intensities of total cell lysates of cells treated with the indicated […]
Figure 4. Luminescence intensities at each concentration are shown as fold-changes relative to that at 0 nM. Points are means ± SD (n = 3).
(1 picture or pasted object on this page, not shown here)
Luminescence intensities of total cell lysates of cells treated with the indicated concentrations of CaNDY, as also used in Figure 5c. Luminescence intensities at each concentration are shown as fold-changes to that at 0 nM. Points are means ± SD (n = 3).

Which “inhibition of luminescence activity of CDC37-nanoKAZ” value does the source give for `CN[C@@H]1C[C@H]2O[C@@](C)([C@@H]1OC)n1c3ccccc3c3c4c(c5c6ccccc6n2c5c31)C(=O)NC4` [staurosporine] here?
Its value is “did not inhibit”.
